Reference: patent US20040077879A1, “Bis (amino acid) molecular scaffolds” (priority 2002, published 2004)
Part of at least one peptide drawing is inferred or uncertain, most often the ends.

Experiment: Stability in aqueous solution
Assay type: physicochemical
Conditions: room temperature

Compound: NC(=O)[C@@H]1C[C@@]2(CN1)NC(=O)[C@@H]1C[C@@]3(CN1C2=O)NC(=O)[C@@H]1C[C@@]2(CN1C3=O)NC(=O)[C@H](Cc1ccc(O)cc1)NC2=O [scaffold 19]
- stable in neutral and acidic aqueous solution: more than three weeks
